The full ranking holds about 33,000 sequences; the median of “E-score (-0.5 to 0.5)” is about -0.0034, and the highest 2% start at about 0.25. Some of the results follow.
These sequences were tested against T1, Yap3 (UniProt P38749) (assay: PBM E-score (8-mer binding enrichment) (E-score (-0.5 to 0.5)); higher = stronger / more preferred TF binding). Conditions: protein concentration: 100 nM; construct: GST-full length.
T1 sequence: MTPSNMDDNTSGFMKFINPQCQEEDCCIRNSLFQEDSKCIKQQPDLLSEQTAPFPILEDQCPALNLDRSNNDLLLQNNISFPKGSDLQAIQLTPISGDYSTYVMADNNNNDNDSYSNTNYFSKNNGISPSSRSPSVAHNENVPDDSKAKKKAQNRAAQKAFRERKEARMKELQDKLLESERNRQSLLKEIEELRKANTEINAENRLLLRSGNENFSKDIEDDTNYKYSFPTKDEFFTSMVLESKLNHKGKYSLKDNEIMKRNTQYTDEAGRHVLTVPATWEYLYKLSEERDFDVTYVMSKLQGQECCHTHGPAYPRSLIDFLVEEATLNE
Summary of the method: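 Each ungapped eight-base word and its reverse complement, pooled, received an E-score from the Universal PBM Analysis Suite. Underlying scans, normalised with masliner, recorded fluorescent anti-GST bound to GST-tagged yeast transcription factors. These were applied at about 100-200 nM to universal all-10-mer Agilent arrays double-stranded by primer extension.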

Sequence	PBM E-score
ATCAGCTC	0.00619
ATGTAGTA	0.237
CACAAGTG	-0.246
AATCTGCA	0.0198
CACGCGAA	-0.0244
AGAGGTAT	0.256
ATCCTTTA	0.0774
ATTTATGA	0.174
GTGTATGA	0.0534
ACGGTTAA	0.0619
ATGATCGG	-0.0209
CCCACATA	-0.0259
ATTTCTAG	0.083
ACCCAGGA	-0.153
CAGTTCAA	0.0849
AACCAAAA	0.237
GAACAAAA	0.346
CACTATCA	0.0462
TCTTTGAA	-0.0592
GTAGTGAA	0.0432
TAGGCTAA	-0.0454
CGCTCCGC	-0.13
CCAGCACA	-0.0385
GCGGGTTA	0.0735
GAGCGCAA	-0.167

Sequence	PBM E-score
TCGTATCA	0.151
CGAGTCAC	-0.135
CCGCGAGA	-0.198
GTGTAGGA	0.0755
AGATTGAC	-0.0808
GACGTAAC	0.194
AAATTATC	0.251
CGTTTGAC	-0.0311
ACAGGCGC	-0.194
AGCAGAAG	-0.101
GAAGGATA	0.0107
ACGCTATA	-0.013
ACTGTGTA	0.117
ATATTTTG	0.157
AGTTACTC	0.0157
CCCGTATA	-0.0173
ATGTCTCA	0.0777
ATATATAA	0.295
CCTTTTAG	-0.17
AAATTGAC	0.0675
AAGCTCTC	-0.156
AGTGGGGA	-0.162
TCCTACGA	-0.137
TTCCCGAA	0.115
CCGAATAG	0.0877

Sequence	PBM E-score
ACGCAGTG	-0.146
ACCCCAAC	0.0185
ACGTGGAT	0.175
CATCAGTC	-0.0299
ACCTAGGC	-0.16
GCACGTAC	-0.0761
ACACTTTC	0.0435
ATACAAAA	0.284
ATGCGAGC	-0.11
CCACACTC	0.0283
ACTCTGCT	-0.116
CATAGGGA	-0.00581
CCCCCTCA	-0.287
ACAAAGAC	0.216
GCTGTGTA	-0.0133
CTCTAAGC	0.0497
CTCCAGTA	0.133
CTATGCAA	0.0817
ACAATATA	0.302
ACTGCCAT	0.0826
TAACCAGA	-0.0142
CGCTCCTC	-0.3
ACGGTACC	0.0178
ATGTACAA	0.0885
AATTCCTA	0.186

Sequence	PBM E-score
CTAGGCAG	-0.156
ACATTATC	0.241
CGACCAGC	-0.0662
CCACAACA	-0.0955
ACACCGGT	-0.0348
ACATGGAA	0.11
GAGTCACA	0.0758
GCACATCC	-0.0425
CGTTCCGA	0.00542
ACCGGGAT	-0.183
ACCCTACG	-0.115
AGTCATAC	0.00383
AGGCTGTA	0.0824
ACAAAGAT	0.0828
CGTACCCC	0.0512
GTCGCAAA	0.0874
GGGAGGCA	-0.251
ATCCTCTC	-0.0398
CACCGGGG	-0.342
GATACTGC	0.19
CCCTGTAG	-0.136
AGACGTCC	0.0554
ATCTGAAA	-0.0353
ATAGGCCA	-0.109
AAAACTCT	-0.168

Sequence	PBM E-score
CACTCGCA	0.0389
CGGTGGGA	-0.107
CCCACAAC	-0.132
CTAATGGC	0.0233
ATTCACTG	0.0615
AGCGTGCA	-0.012
ACATAGTG	0.0432
GACTAACC	-0.0654
GCTGCTTA	-0.14
CCAATTGG	0.245
CCGTTTTA	0.0816
AAACCACA	0.129
AGAGCTTC	-0.124
AGGTCCTG	-0.174
CGCTCGAA	-0.122
GACAAGTA	-0.00588
ACAAACCG	-0.0143
GGTGGATA	-0.054
CACTCAAC	0.188
TAGATAAA	0.157
ACGAAACG	0.0929
GTATCGTA	0.185
TCGACCGA	0.0102
ACCACGCC	-0.241
GCCTACGA	0.136

Some of the entries so far, bar-delimited.
Sequence | PBM E-score
CTAGGCAG | -0.156
ACATTATC | 0.241
CGACCAGC | -0.0662
CCACAACA | -0.0955
ACACCGGT | -0.0348
ACATGGAA | 0.11

Later entries:

Sequence	PBM E-score
CGGCCCGA	-0.0391
CAACCCCC	-0.372
AACGCAAG	-0.04
CAACACGA	0.0874
CGAATAAG	-0.00825
CAAGTCCA	-0.03
AGTACTGA	-0.0205
ATGCTAGC	0.0109
ATGGTTTC	0.167
CAATTGGA	0.00694
ACCGGGCG	-0.278
CACATTCA	0.0306
AGATCTCG	0.00088
CCAAAAAC	0.139
AATCAGTC	0.0871
ACTATCAG	0.0145
CAGACCGC	0.0188
ACCATTGA	0.0679
AAGCAAGA	0.118
TAAGTCAA	0.0697
GACAATCC	0.174
CTTATAGA	-0.0523
CAAACTGG	0.0416
GAGGTCCA	-0.245
TTGGAAAA	0.0714

Sequence	PBM E-score
AGGCAATA	0.0359
CTTGGGTC	-0.0649
ACGGGGAT	-0.205
AACGAATA	0.11
CACCCTCG	-0.104
GCAGTAGC	-0.246
ATGAGAAG	0.0776
AGGCGCCT	-0.112
TCGAGTAA	0.176
AGCTGTTG	0.113
ACGCGAGC	0.0664
CTTGTCAA	-0.0181
AATAATAT	0.337
AGCCATTC	-0.00907
AGGAGAAG	-0.0878
AGTACGAC	-0.0619
GACATCTA	0.00074
CCACATGG	-0.228
CACGTGTA	-0.0491
CGAGGCCG	-0.226
AAGTCTGA	-0.216
CAGCCATA	-0.0168

Reference: the supplement of paper PMC3334620
